Test results taken from patent publication US9453062B2, “Glucose dependent insulinotropic polypeptide analogs, pharmaceutical compositions and use thereof” (Beijing Hanmi Pharmaceutical Co., Ltd., priority 2011, dated 2016).
Part of at least one peptide drawing is inferred or uncertain, most often the ends. Where a SMILES comes first, the peptide text is derived from it. [ ]: non-standard residue; d: D form. The star is where a group is joined. Palmitoyl = CCCCCCCCCCCCCCCC(=O)*; Aib = CC(C)(N)C(=O)O

The chains behind the UniProt entries cited, without tags or fusion partners. Residues count along the entry.
UniProt P43220, 24-463: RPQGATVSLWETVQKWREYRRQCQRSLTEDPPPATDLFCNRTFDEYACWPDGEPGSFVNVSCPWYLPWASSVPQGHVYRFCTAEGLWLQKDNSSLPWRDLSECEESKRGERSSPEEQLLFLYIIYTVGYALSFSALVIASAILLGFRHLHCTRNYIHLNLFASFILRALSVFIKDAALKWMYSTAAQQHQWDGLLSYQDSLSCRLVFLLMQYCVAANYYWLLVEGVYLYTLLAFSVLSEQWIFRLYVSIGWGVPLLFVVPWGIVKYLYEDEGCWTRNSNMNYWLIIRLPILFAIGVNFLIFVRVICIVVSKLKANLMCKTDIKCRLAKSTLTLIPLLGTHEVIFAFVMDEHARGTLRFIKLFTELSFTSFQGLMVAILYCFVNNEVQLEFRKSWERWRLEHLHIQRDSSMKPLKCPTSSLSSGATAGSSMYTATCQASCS

Columns and labels:
hGLP-1R = target: T1, hGLP-1R (Homo sapiens, UniProt P43220); test: hGLP-1R-mediated cAMP induction assay in CHO cell line; format: cell-based; details: Table 3;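 also: CHO cells expressing human GLP-1R, treated 30 min at 37 °C, intracellular cAMP measured by competitive fluorescent immunoassay and converted via a cAMP standard curve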
T1 construct: expressed in transfected cells; host or cells: CHO

hGIPR = target: T2, hGIPR (Homo sapiens, UniProt P48546); test: hGIPR-mediated cAMP induction assay in CHO cell line; format: cell-based; details: read-out: GIP Receptor EC50; Table 3; CHO hGIPR cells
T2 construct: expressed in transfected cells; host or cells: CHO
T2 sequence (P48546 22-466): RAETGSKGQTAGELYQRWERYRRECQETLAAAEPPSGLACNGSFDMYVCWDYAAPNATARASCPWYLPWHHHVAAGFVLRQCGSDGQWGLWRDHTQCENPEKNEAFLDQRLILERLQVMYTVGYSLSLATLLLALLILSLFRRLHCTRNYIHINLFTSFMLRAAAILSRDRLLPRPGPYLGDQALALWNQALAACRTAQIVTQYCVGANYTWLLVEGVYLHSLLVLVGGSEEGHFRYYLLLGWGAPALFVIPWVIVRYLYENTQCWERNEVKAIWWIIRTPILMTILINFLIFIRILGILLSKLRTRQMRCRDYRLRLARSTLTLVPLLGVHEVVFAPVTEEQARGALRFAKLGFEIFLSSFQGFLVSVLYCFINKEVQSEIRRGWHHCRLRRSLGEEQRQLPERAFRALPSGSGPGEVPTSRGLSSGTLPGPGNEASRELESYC

SMILES: CCCCCCCCCCCCCCCC(=O)SC[C@H](NC(=O)[C@H](CO)NC(=O)[C@@H]1CCCN1C(=O)[C@@H]1CCCN1C(=O)[C@@H]1CCCN1C(=O)[C@H](C)NC(=O)CNC(=O)[C@H](CO)NC(=O)[C@H](CO)NC(=O)[C@@H]1CCCN1C(=O)CNC(=O)CNC(=O)[C@H](CCCCN)NC(=O)[C@@H](NC(=O)[C@H](CC(C)C)NC(=O)[C@H](Cc1c[nH]c2ccccc12)NC(=O)[C@H](C)NC(=O)[C@@H](NC(=O)[C@H](Cc1ccccc1)NC(=O)[C@H](CCC(=O)O)NC(=O)[C@H](CCCNC(=N)N)NC(=O)[C@@H](NC(=O)[C@H](C)NC(=O)[C@H](CCC(=O)O)NC(=O)[C@H](CCCCN)NC(=O)[C@H](CCC(=O)O)NC(=O)[C@H](CCSC)NC(=O)[C@H](Cc1ccc(O)cc1)NC(=O)[C@@H](NC(=O)[C@H](CO)NC(=O)[C@H](Cc1ccc(O)cc1)NC(=O)[C@H](CC(=O)O)NC(=O)[C@H](CO)NC(=O)[C@H](CO)NC(=O)[C@H](Cc1ccccc1)NC(=O)[C@@H](NC(=O)CNC(=O)[C@H](CCC(=O)O)NC(=O)C(C)(C)NC(=O)[C@@H](N)Cc1ccc(O)cc1)[C@@H](C)O)[C@@H](C)CC)C(C)C)[C@@H](C)CC)C(C)C)C(N)=O [Compound 128] (H-Y[Aib]EGTFSSDYSIYMEKEAVREFIAWLVKGGPSSGAPPPSC(Palmitoyl)-NH2; N-terminus assumed)
- GLP-1 Receptor Relative Potency (hGLP-1R; against native GLP-1): 0.39
- EC50 (hGLP-1R; read-out: GLP-1 Receptor EC50, CHO hGLP1R cells): 247 nM
- EC50 (hGIPR): 355 nM
